Values quoted from earlier work as cited in patent publication US5885786A, “Methods for screening of substances for inhibition of multidrug resistance” (priority 1996, dated 1999).
At least one read-out could not be matched to a standard name with certainty.

Details: read-out: peak concentration in plasma; usual clinical doses; cited from earlier work

SMILES: CC[C@]1(O)C[C@H]2CN(CCc3c([nH]c4ccccc34)[C@@](C(=O)OC)(c3cc4c(cc3OC)N(C=O)[C@H]3[C@@](O)(C(=O)OC)[C@H](OC(C)=O)[C@]5(CC)C=CCN6CC[C@]43[C@@H]65)C2)C1 [Vincristine]
- Cmax: ~400 µM
